The target in assay [1] is T1, chicken STING, Flag-tagged (pcDNA3.1-chSTING-Flag) (chicken) (UniProt E1C7U0).
T1 sequence: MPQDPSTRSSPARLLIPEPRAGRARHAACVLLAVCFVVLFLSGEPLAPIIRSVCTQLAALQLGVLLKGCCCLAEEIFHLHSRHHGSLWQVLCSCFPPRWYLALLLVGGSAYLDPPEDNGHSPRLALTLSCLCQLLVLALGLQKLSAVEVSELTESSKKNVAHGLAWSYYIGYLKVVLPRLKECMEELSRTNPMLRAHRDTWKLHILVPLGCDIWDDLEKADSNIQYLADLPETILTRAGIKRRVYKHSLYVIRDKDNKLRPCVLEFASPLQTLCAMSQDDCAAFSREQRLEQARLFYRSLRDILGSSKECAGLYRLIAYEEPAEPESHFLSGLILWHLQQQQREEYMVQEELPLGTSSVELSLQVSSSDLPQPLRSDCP
Briefly: co-IP.

Protein sequences, listed by entry. Tags and fused reporters are not part of them. Lines headed by an entry give the natural chain unless they say otherwise; changes in a name come on top.
UniProt Q5F491: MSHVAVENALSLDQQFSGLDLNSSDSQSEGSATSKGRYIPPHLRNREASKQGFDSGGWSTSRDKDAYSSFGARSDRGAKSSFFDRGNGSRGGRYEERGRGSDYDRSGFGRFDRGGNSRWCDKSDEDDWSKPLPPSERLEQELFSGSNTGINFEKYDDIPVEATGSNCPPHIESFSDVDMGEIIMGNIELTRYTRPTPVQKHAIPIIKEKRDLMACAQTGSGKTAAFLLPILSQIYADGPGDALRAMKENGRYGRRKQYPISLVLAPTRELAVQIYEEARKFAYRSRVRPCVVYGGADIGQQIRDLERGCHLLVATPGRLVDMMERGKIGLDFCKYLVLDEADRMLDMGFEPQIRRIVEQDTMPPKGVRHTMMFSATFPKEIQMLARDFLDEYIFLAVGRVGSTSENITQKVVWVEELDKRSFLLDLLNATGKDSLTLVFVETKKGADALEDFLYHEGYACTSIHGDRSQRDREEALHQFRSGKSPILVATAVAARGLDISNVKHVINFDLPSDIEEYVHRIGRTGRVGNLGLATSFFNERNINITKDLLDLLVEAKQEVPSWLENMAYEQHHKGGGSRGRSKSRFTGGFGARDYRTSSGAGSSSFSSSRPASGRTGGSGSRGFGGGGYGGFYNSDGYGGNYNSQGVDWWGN

The target in assay [2] is T2, chicken STING, HA-tagged (pCMV-HA-chSTING) (chicken) (UniProt E1C7U0).
T2 sequence: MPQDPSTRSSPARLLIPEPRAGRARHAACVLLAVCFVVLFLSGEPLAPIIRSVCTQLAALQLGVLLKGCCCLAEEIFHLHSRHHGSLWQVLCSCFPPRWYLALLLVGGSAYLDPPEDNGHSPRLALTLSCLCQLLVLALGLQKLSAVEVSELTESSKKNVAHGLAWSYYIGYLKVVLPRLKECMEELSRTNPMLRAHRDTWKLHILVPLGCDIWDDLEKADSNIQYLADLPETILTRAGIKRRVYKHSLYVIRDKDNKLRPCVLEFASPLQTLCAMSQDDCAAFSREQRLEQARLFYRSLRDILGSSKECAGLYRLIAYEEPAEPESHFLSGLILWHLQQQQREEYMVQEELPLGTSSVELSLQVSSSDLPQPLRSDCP
Briefly: co-IP; reverse assay: DF-1 cells co-transfected with pcDNA3.1-chDDX3X-Flag and pCMV-HA-chSTING, 48 h; RIPA lysate precipitated with anti-HA affinity gel; blot with anti-Flag.

Assay [3] concerns the target chicken DDX3X, Flag-tagged (pcDNA3.1-chDDX3X-Flag) (chicken) (UniProt Q5F491). Briefly: co-IP; DF-1 cells co-transfected with pcDNA3.1-chDDX3X-Flag and pCMV-HA-chSTING, 48 h; RIPA lysate precipitated with anti-Flag affinity gel 2 h at 4°C; blot with anti-HA.
Assay [4] shares this target. Description: co-IP; HEK 293T cells co-transfected with pcDNA3.1-chDDX3X-Flag and pCMV-HA-chSTING, 48 h; RIPA lysate precipitated with anti-Flag affinity gel 2 h at 4°C; blot with anti-HA.

Results are given in words; binding and its absence hold for the method and conditions named. In cells and extracts the contact can be indirect. Binding calls can cover weak binding; strength is not graded here. Tags and fused reporters may be left off the sequences shown.

On to endogenous chicken DDX3X, for which the binding entry in assay [1] was “binds”.

For the molecule “chicken DDX3X, Flag-tagged (pcDNA3.1-chDDX3X-Flag) (from UniProt Q5F491)”, the binding entry in assay [2] was “binds”.

B1: chicken STING, HA-tagged (pCMV-HA-chSTING) (protein, UniProt E1C7U0 1-379)
chain: MPQDPSTRSSPARLLIPEPRAGRARHAACVLLAVCFVVLFLSGEPLAPIIRSVCTQLAALQLGVLLKGCCCLAEEIFHLHSRHHGSLWQVLCSCFPPRWYLALLLVGGSAYLDPPEDNGHSPRLALTLSCLCQLLVLALGLQKLSAVEVSELTESSKKNVAHGLAWSYYIGYLKVVLPRLKECMEELSRTNPMLRAHRDTWKLHILVPLGCDIWDDLEKADSNIQYLADLPETILTRAGIKRRVYKHSLYVIRDKDNKLRPCVLEFASPLQTLCAMSQDDCAAFSREQRLEQARLFYRSLRDILGSSKECAGLYRLIAYEEPAEPESHFLSGLILWHLQQQQREEYMVQEELPLGTSSVELSLQVSSSDLPQPLRSDCP
B1: the binding entry in assay [3] and in assay [4] was “binds” throughout.

The values above are taken from paper PMC6478769.
